The record followed here is PubChem BioAssay AID2685 (National Center for Advancing Translational Sciences (NCATS), 2010).

The test can be described thus: qHTS Assay for Lipid Storage Modulators in Drosophila S3 Cells.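 As to cell number change: cells counted by Cell Tracker Red CMTPX staining in the red channel.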 As to conditions: BODIPY lipid droplet fluorescence, 18-24 h; for cell number change: measured here: cell count max response, cells fed with added oleic acid. The method, boiled down: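 Drosophila S3 cells got compounds at several concentrations plus oleic acid (400 uM solution). Laser-scanning cytometry with 488 nm excitation read lipid droplets at 500-530 nm and cells at 575-640 nm. Percent activity was relative to 20 uM Triacsin C.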

[1] abbreviates: measured here: lipid fluorescence (Fed channel) AC50, cells fed with added oleic acid.
Where [2] appears, read: measured here: cell number channel AC50, cells fed with added oleic acid.

The list shows a part of the results. The main result of the screen is listed elsewhere. These columns were measured beside it and carry no call. Compounds called inactive in the main read-out are mostly missing here. Potencies come from curve fits of mixed quality, noted in brackets.

For the molecule `CC(C)(C)OC(=O)N1CCC2(CC1)Oc1ccc(F)cc1C(=O)C21CC(c2cccnc2)=NO1` (stereo unspecified), the cell number change was 19.1%. Also, under setting [1], the AC50 (commonly the concentration at which the activity in the assay is half-maximal) was 10300 nM [rising, partial curve, poor fit]. As for `COc1ccccc1N(C)S(=O)(=O)c1ccc(C(=O)OCC(N)=O)cc1`, the cell number change worked out at 1.56%. Moreover, the AC50 under setting [1] is 2060 nM [falling, partial curve]. For `CC1CC(C)CN(S(=O)(=O)N2CCC(C(=O)NCCc3ccccc3)CC2)C1` (stereo unspecified), the cell number change turned out to be 1.53%. Consider `Cc1ccc(C(=O)NCCCn2ccnc2)cc1[N+](=O)[O-]`, for which the cell number change is -16.9%. Further, the AC50 under setting [2] is 92 nM [falling, full curve, poor fit]. For `Cc1nc(-c2ccccc2)sc1C(=O)NN`, the cell number change came out at 63.5%. Under setting [2], the AC50 is 2910 nM [falling, single point]. Moreover, the AC50 under setting [1] was 3660 nM [falling, single point]. Turning to `CCOc1ccc(N(C)S(=O)(=O)c2ccc(C)c(C(=O)Nc3nnc(C4CC4)s3)c2)cc1`, the cell number change is 17.6%. Moreover, the AC50 under setting [1] was 6510 nM [rising, partial curve, poor fit].

Turning to `CCCCCc1nc2c(c(=O)c3ccccc3n2C)c(=O)n1Cc1ccc(OC)cc1`, the cell number change amounted to 19.9%. Also, the AC50 under setting [1] was 580 nM [rising, full curve]. For the molecule `Cn1c(SCc2nc(-c3cccs3)no2)nnc1C1CCCCC1`, the cell number change came to 88.2%. Under setting [2], the AC50 was 20600 nM [rising, single point]. The AC50 under setting [1] is 18400 nM [rising, single point]. As for `O=C(NCc1ccccc1CN1CCCC1)c1ccc(Cl)c(N2CCCC2=O)c1`, the cell number change came out at 26.9%. For the same molecule, under setting [1], the half-maximal activity concentration (AC50) is 580 nM [rising, full curve]. As to `CCCc1nc(N2CCOCC2)c(C#N)c2c1CCCC2`, the cell number change is 52.9%. For the same molecule, under setting [2], the AC50 was 29100 nM [rising, single point]. In the case of `COc1cc(OC)nc(NC(=O)NS(=O)(=O)c2ccc(OC(F)(F)F)cc2)n1`, the cell number change was -15.1%. Moreover, under setting [1], the AC50 was 11600 nM [falling, partial curve, poor fit]. As for `Cc1ccc(C2=NN(S(C)(=O)=O)C(c3ccc4c(c3)OCO4)C2)cc1` (stereo unspecified), the cell number change was found to be 5.16%. The AC50 under setting [1] is 1160 nM [rising, partial curve].

On to `Cc1nn(C)cc1[C@@H]1C[C@H]2CN(Cc3cccc(Cl)c3)C(=O)[C@]23CCCN13`, for which the cell number change stood at 12.2%. For `CCOCCOCCC(C(=O)OCC)P(=O)(c1ccccc1)c1ccccc1` (stereo unspecified), the cell number change is -113%. Further, the AC50 under setting [2] was 164 nM [falling, full curve, poor fit]. Besides, under setting [1], the AC50 is 651 nM [falling, single point]. For `COc1ccc(-c2nc(CS(=O)CC(=O)N3CCc4ccccc4C3)c(C)o2)cc1` (stereo unspecified), the cell number change is 25.7%. Besides, under setting [2], the AC50 is 6510 nM [rising, single point]. Further, the AC50 under setting [1] is 8200 nM [rising, partial curve, poor fit]. As to `Cc1ccccc1NC(=O)Cc1nc(-c2c[nH]c(C(=O)N3CCCC3)c2)cs1`, the cell number change is 42.2%. Moreover, under setting [2], the AC50 was 16400 nM [rising, partial curve, poor fit]. Moreover, under setting [1], the AC50 is 7310 nM [rising, partial curve, poor fit].

For `COC(=O)CSc1nnc(CNC(=O)c2ccccc2OC)n1C`, the cell number change was -25.7%. For the same molecule, the AC50 under setting [2] was 920 nM [falling, full curve, poor fit]. `Cc1ccc(Cl)cc1N(C(=O)c1csnn1)C(C(=O)NC1CCCC1)c1ccco1` (stereo unspecified): the cell number change amounted to 20.6%. Also, the AC50 under setting [1] is 206 nM [falling, single point]. For `CCCS(=O)(=O)c1c(S(=O)(=O)CCC)c2cnccn2c1C(=O)c1ccc(Cl)cc1`, the AC50 by setting is: under setting [2], 1300 nM [falling, full curve]; under setting [1], 6510 nM [falling, single point]. Turning to `Cc1cc(C(=O)Nc2ccc(F)cc2C)n(-c2ccccc2)n1`, the cell number change was determined as 67.3%. Moreover, the AC50 under setting [2] is 82 nM [rising, full curve]. In addition, the AC50 under setting [1] was 92 nM [rising, full curve]. As for `CCCn1c(=O)c(C(=O)NCc2ccc(OC)c(OC)c2)c(O)c2ccccc21`, the AC50 under setting [1] was 9200 nM [rising, partial curve, poor fit]. In the case of `COc1ccc(S(=O)(=O)N2CCN(CCCOc3ccc(F)cc3)CC2)cc1OC`, the cell number change is 29.5%. Under setting [1], the AC50 is 2060 nM [rising, partial curve, poor fit]. With `Cc1cc2cc(CN(CCN3CCOCC3)C(=O)Nc3ccccc3F)c(=O)[nH]c2cc1C`, the cell number change is -3.66%. For the same molecule, the AC50 under setting [1] is 651 nM [rising, full curve, poor fit]. On to `C=CCN=C1N[C@@H](c2ccccc2)C(C(=O)OC)=C(C)N1CC`, for which the cell number change amounted to 6.17%. The AC50 under setting [1] is 29100 nM [rising, single point]. Turning to `Cc1cccn2c(=O)c3cc(C(=O)NC4CCCC4)c(=N)n(C4CCCCC4)c3nc12`, the cell number change stood at 5.13%. Further, the AC50 under setting [1] was 5170 nM [falling, single point]. On to `O=C(c1ccco1)N1N=C2CCCCCC2C1(O)C(F)(F)F` (stereo unspecified), for which the cell number change is -39.7%. Moreover, under setting [2], the AC50 was 8200 nM [falling, partial curve]. Besides, under setting [1], the AC50 was 4610 nM [falling, full curve]. For the molecule `COc1cccc(C(=O)Nc2cccc(C(=O)NCC(C)C)c2)c1`, the cell number change was -4.4%. Moreover, the half-maximal activity concentration (AC50) under setting [2] was 130 nM [falling, full curve, poor fit]. Take `Cc1cc(C)c(C#N)c(SCC(=O)c2cc(C)n(CCc3ccccc3)c2C)n1`: the AC50 under setting [2] was 820 nM [rising, single point]. As for `COc1ccc(-c2csc(N(C)C(=O)c3ccco3)n2)cc1`, the cell number change is -6.2%. For the same molecule, the AC50 under setting [1] is 130 nM [falling, full curve, poor fit]. For the molecule `CCn1c(SCC(=O)Nc2cccc(NC(=O)c3ccco3)c2)nnc1-c1cccs1`, the cell number change was determined as 22.7%. In addition, the AC50 under setting [1] is 1460 nM [rising, partial curve].

Consider `COC(=O)C(C)Sc1nc2c(cnn2-c2ccc(C)cc2)c(=O)[nH]1` (stereo unspecified), for which the cell number change turned out to be 7.76%. For `CCOc1ccc(NC(=O)CCc2nnc3ccc(N4CCC5(CC4)OCCO5)nn23)cc1`, the cell number change was -9.48%. In addition, the AC50 under setting [1] was 4.61 nM [rising, full curve, poor fit]. Take `CC(C)CC(c1nnnn1C1CCCC1)N1CCC(C(N)=O)CC1` (stereo unspecified): the cell number change stood at 41.6%. For the same molecule, the AC50 under setting [2] is 29100 nM [rising, single point].

Consider `CCOc1ccc(CCNC(=O)c2ccc(N3CCCC3=O)cc2)cc1OCC`, for which the cell number change was found to be 13.6%. Turning to `Cc1c(C(=O)N2CCN(c3ccccc3)CC2)sc2nc3n(c(=O)c12)CCC3`, the cell number change turned out to be 6.57%. Regarding `CCOC(=O)C1CCN(C(=O)CNC(=O)c2nn(-c3ccc(OC)cc3OC)c(=O)c3ccccc23)CC1`, the cell number change was -25.7%.
